Data on 1 molecule can be found in paper PMC9606361.

These are yes or no findings as the source states them, for the method shown.

The target of this assay is T1, EcNhaA WT-like triple mutant (A109T, Q277G, L296M) (Escherichia coli), P13738.
T1 chain: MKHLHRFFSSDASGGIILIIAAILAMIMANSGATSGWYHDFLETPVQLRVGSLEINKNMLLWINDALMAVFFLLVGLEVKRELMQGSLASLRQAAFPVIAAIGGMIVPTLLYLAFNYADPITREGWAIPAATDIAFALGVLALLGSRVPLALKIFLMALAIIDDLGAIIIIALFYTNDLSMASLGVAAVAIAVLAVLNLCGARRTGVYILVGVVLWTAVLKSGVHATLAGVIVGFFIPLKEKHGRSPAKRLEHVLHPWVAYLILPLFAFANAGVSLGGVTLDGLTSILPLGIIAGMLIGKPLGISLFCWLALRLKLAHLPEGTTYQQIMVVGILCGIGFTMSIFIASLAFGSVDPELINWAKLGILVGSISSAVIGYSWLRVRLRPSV
The assay can be described thus: crystal structure; lipidic cubic phase (monoolein) crystals, 0.1 M MES pH 6.5, 0.1 M NaCl, 0.1 M CaCl2, 24-45% PEG 400, 20 °C; protein purified with cardiolipin; 2.2 Å; both purified. The note with it: remark: other sources report otherwise.

B1: EcNhaA WT-like triple mutant (A109T, Q277G, L296M), P13738 1-388 (protein)
chain: MKHLHRFFSSDASGGIILIIAAILAMIMANSGATSGWYHDFLETPVQLRVGSLEINKNMLLWINDALMAVFFLLVGLEVKRELMQGSLASLRQAAFPVIAAIGGMIVPTLLYLAFNYADPITREGWAIPAATDIAFALGVLALLGSRVPLALKIFLMALAIIDDLGAIIIIALFYTNDLSMASLGVAAVAIAVLAVLNLCGARRTGVYILVGVVLWTAVLKSGVHATLAGVIVGFFIPLKEKHGRSPAKRLEHVLHPWVAYLILPLFAFANAGVSLGGVTLDGLTSILPLGIIAGMLIGKPLGISLFCWLALRLKLAHLPEGTTYQQIMVVGILCGIGFTMSIFIASLAFGSVDPELINWAKLGILVGSISSAVIGYSWLRVRLRPSV
As to B1, the binding entry is listed as “no binding”.
